Experimental data from patent US5574059A, “Treating disorders mediated by vascular smooth muscle cell proliferation” (priority 1995, dated 1996).

Key:
I2 imidazoline receptors [1] = test: inhibition of 3H-idazoxan (5 nM) binding to rat aortic smooth muscle cell membranes; settings: Table 2, pseudo-Hill coefficient
Experimental: Binding to I2 imidazoline receptors is determined by the following assay. Membranes are prepared from cultured cells for ligand binding as described in Regunathan, S., et al, Biochem. Pharmacol. 45, 1667-1675 (1993) and Regunathan, S., et al, J. Neurosci. Res. 34, 681-688 (1993) and the disclosure in these on this is incorporated herein by reference. In particular, harvested rat aortic smooth muscle cells are homogenized in Hepes-sucrose buffer (pH 7.4) with a Teflon-glass homogenizer and centrifuged at 1000 × g for 10 minutes. The pellets are suspended in ice-cold Tris-HCl buffer (pH 7.7) with 5mM ethylene diamine tetracetic acid and homogenized using a Polytron (Brinkman Instruments) for 10 seconds. The homogenate is centrifuged at 40,000 × g for 30 minutes to produce a membrane pellet. The membrane pellet is washed three times by resuspending in buffer and re-centrifuging. The washed pellet is suspended in fresh Tris-HCl buffer (pH 7.4) to provide approximately 100 μg protein per assay tube. Binding assays are performed in Tris-HCl buffer (pH 7.7) using 5 nM of […]. Non-specific binding is defined by 100 μM of unlabelled idazoxan which will inhibit the specific binding of ^3 H-idazoxan. Thus the binding remaining in the presence 100 μM of idazoxan is due to non-specific binding and this will be substracted from total binding to calculate the specific binding. Following incubation at 25° C. for 30 minutes, reaction is terminated by rapid vacuum filtration over Whatman GF/B filters and washed with 10 ml of ice-cold buffer. Filters are suspended in scintillation fluid and radioactivity counted in a liquid scintillation counter. Membrane protein is assayed by Coomassie Blue method (Pierce) using bovine serum albumin as standard.
Determination of inhibition constant (Ki) for each drug is determined as follows: The binding of ^3 H-idazoxan to membranes of vascular smooth muscle cells is determined in the presence of 0.1 nM to 100 μM concentrations of potential drug. The percent inhibition of specific binding of ^3 H-idazoxan by each concentration is calculated and plotted against concentration. The data is analyzed by non-linear curve fitting program, LIGAND and the IC50 value for each potential drug is calculated. The affinity for each drug (Ki) for I2 imidazoline receptors is calculated using the formula Ki =IC50 /1+L/Kd where L is the concentration of ^3 H-idazoxan used for binding and Kd is the dissociation constant for ^3 H-idazoxan for I2 imidazoline receptors. The dissociation constant (Kd) is determined by Scatchard analysis of the saturation binding of ^3 H-idazoxan using the formula [formula] where B and F are the amount of bound and free ligand, respectively, and Bmax is the number of binding sites.
Primary cultures of rat-aortic smooth muscle cells were prepared by a modification (described in Erlinge, Do, et al, Am. J. Physiol. 265, H1089-1097, 1993) of the method of Meyer-Lehnert and Schrier (Meyer-Lehnert, H., et al, Hypertension 13,350-361, 1989), the disclosure of these cited articles being incorporated herein by reference. Briefly, rats were killed by anesthetic overdose and the aorta were removed and incubated with collagenase (2 mg/ml) in Dulbecco's modified Eagle's minimum essential medium (DMEM). The vessel was stripped of adventitia, cut longitudinally and the intima scraped away. After further collagenase treatment, the remaining tissue was passed 20 times through 18 and 16 gauge needles. The resulting cell suspension was centrifuged at 500 × g for 5 minutes and resuspended in DMEM containing penicillin (100 units/ml), streptomycin (100 μg/ml), 2 mM L-glutamine and 10% fetal calf serum. The suspended cells were plated in T-75 flasks, cultured until confluent, and subcultured in 100 mm plates. The confluent cells were harvested and membranes were prepared. Cell viability was determined by trypan blue exclusion.

I2 imidazoline receptors [2] = test: saturation/specific binding of 3H-idazoxan to smooth muscle cell membranes (Scatchard analysis); parameters: species or system rat
Experimental: Binding to I2 imidazoline receptors is determined by the following assay. Membranes are prepared from cultured cells for ligand binding as described in Regunathan, S., et al, Biochem. Pharmacol. 45, 1667-1675 (1993) and Regunathan, S., et al, J. Neurosci. Res. 34, 681-688 (1993) and the disclosure in these on this is incorporated herein by reference. In particular, harvested rat aortic smooth muscle cells are homogenized in Hepes-sucrose buffer (pH 7.4) with a Teflon-glass homogenizer and centrifuged at 1000 × g for 10 minutes. The pellets are suspended in ice-cold Tris-HCl buffer (pH 7.7) with 5mM ethylene diamine tetracetic acid and homogenized using a Polytron (Brinkman Instruments) for 10 seconds. The homogenate is centrifuged at 40,000 × g for 30 minutes to produce a membrane pellet. The membrane pellet is washed three times by resuspending in buffer and re-centrifuging. […] Filters are suspended in scintillation fluid and radioactivity counted in a liquid scintillation counter. […]
Primary cultures of rat-aortic smooth muscle cells were prepared by a modification (described in Erlinge, Do, et al, Am. J. Physiol. 265, H1089-1097, 1993) of the method of Meyer-Lehnert and Schrier (Meyer-Lehnert, H., et al, Hypertension 13,350-361, 1989), the disclosure of these cited articles being incorporated herein by reference. […] Cell viability was determined by trypan blue exclusion.

| Compound | Hill Coefficient (nH) (I2 imidazoline receptors [1]) | Bmax relative to α2-adrenergic sites measured by 3H-rauwolscine (I2 imidazoline receptors [2]; 3H-idazoxan non-adrenergic sites vs 3H-rauwolscine sites) | number of non-adrenergic binding sites (Bmax) (I2 imidazoline receptors [2]; in presence of 10 μM epinephrine) [fmol/mg protein] |
| --- | --- | --- | --- |
| Clc1cccc(Cl)c1N=C1NCCN1 [Clonidine] | 0.65 ± 0.05 | – | – |
| c1ccc(CC2=NCCN2)cc1 [Tolazoline] | 0.89 ± 0.08 | – | – |
| Cc1ccc(N(CC2=NCCN2)c2cccc(O)c2)cc1 [Phentolamine] | 0.75 ± 0.11 | – | – |
| c1ccc2c(c1)OCC(C1=NCCN1)O2 (centres unmarked) [^3 H-idazoxan] | – | about 10 fold | 610 ±45 |
| c1ccc2c(c1)OCC(C1=NCCN1)O2 (centres unmarked) [Idazoxan, 2-[2-(1,4-benzodioxanyl)]-2-imidazoline] | 0.95 ± 0.05 | – | – |
| NCCCCN=C(N)N [Agmatine, 4-(aminobutylguanidine)] | 0.63 | – | – |
| Brc1c(NC2=NCCN2)ccc2nccnc12 [UK 14,304, 5-bromo-N-(4,5-dihydro-1-H-imidazol-2-yl)-6-quinoxalinamine] | 0.69 ± 0.04 | – | – |
